Here are results for ten substances from article PMC6929984.

By UniProt entry, the sequences of proteins in these tests, tags left out.
UniProt P35222: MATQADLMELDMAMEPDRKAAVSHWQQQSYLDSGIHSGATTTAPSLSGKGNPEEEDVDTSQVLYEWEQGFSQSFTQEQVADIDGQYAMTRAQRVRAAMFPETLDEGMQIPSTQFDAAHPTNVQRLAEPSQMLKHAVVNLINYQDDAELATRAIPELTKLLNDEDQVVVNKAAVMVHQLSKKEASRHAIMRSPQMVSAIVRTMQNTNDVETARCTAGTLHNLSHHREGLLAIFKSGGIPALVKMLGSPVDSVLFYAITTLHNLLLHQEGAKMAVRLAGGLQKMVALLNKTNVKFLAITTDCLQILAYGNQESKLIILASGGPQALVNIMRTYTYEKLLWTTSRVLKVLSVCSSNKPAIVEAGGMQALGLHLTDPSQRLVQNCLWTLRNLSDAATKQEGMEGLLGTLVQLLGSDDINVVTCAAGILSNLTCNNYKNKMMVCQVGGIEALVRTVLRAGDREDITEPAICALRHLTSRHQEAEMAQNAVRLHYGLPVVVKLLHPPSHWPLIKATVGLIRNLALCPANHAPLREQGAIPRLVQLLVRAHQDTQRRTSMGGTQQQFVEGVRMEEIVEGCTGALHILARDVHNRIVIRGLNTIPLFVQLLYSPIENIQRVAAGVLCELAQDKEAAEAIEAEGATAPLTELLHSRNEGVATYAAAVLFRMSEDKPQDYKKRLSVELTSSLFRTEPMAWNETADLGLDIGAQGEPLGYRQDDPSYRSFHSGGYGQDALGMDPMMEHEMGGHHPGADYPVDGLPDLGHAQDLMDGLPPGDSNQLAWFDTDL
UniProt P43694: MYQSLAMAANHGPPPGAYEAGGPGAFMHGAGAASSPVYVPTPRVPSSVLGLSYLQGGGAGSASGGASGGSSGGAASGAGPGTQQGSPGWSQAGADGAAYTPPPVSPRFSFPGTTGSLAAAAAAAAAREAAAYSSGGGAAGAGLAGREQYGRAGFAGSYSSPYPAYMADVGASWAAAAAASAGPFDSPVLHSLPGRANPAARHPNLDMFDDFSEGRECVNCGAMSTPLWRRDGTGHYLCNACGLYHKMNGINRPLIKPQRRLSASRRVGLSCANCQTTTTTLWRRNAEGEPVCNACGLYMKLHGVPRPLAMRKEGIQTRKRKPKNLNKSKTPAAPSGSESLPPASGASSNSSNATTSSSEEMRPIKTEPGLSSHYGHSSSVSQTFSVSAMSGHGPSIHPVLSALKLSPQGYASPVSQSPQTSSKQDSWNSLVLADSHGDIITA
UniProt Q9UJU2: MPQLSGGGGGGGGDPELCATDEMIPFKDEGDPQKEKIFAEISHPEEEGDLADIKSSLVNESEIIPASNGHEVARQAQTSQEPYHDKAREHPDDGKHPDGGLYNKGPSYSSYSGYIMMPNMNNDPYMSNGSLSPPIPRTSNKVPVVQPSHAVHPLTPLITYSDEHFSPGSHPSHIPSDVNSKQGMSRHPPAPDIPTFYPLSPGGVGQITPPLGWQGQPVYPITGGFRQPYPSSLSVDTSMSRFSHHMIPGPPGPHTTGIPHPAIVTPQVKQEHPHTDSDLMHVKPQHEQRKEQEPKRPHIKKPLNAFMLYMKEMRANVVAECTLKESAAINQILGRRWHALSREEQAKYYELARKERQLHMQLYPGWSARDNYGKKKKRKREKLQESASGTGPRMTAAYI
UniProt P36402: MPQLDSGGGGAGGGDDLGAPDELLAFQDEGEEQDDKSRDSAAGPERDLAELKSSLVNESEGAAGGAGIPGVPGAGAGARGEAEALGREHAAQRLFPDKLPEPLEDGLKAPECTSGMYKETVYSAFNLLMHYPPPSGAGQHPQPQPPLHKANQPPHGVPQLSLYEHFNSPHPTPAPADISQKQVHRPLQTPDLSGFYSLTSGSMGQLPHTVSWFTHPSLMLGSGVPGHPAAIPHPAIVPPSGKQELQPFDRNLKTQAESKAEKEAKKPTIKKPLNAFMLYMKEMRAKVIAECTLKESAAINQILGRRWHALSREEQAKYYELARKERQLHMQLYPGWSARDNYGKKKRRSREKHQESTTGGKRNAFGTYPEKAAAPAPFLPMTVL

For test [1], the target named is β-catenin, endogenous in HepG2 / HepG2i cells (human (endogenous in HepG2)) (UniProt P35222). As to the kind of experiment: co-IP; endogenous proteins from 5×10^7 HepG2 cells; reciprocal, with anti-GATA4 or anti-β-catenin; immunoblot. In general terms: A western blot detects proteins with antibodies after separation by electrophoresis.
Test [2] addresses GATA4, bacterially expressed (GST pull-down) (human) (UniProt P43694). As to the kind of experiment: pull-down; in vitro GST pull-down with bacterially expressed GATA4 and β-catenin; which one carried GST is not told.
For test [3], the target named is β-catenin overexpressed in HEK293 cells (tag not told for the experiment) (human) (UniProt P35222). Kind of test: co-IP; β-catenin with LEF1 or TCF1 in HEK293 cells, with or without ectopically overexpressed GATA4 (Figure S4H, S4I).
Test [4] addresses β-catenin, endogenous in HepG2 / HepG2i cells (human (endogenous in HepG2)) (UniProt P35222). As to the kind of experiment: co-IP; HepG2i cells (5×10^7) treated with or without DOX for 48 hours; immunoprecipitation with anti-β-catenin antibody; immunoblot for LEF1 and TCF1.
The target of test [5] is Myc tagged full-length GATA4 (human) (UniProt P43694). Kind of test: co-IP; HEK293 cells (2×10^6) transfected with the indicated Myc- and FLAG-tagged plasmids (5 mg each (so in the source)); NP-40 lysis buffer; immunoblot (Figure 3E, 3F).
Test [6] concerns the target β-catenin-N-luciferase (human) (UniProt P35222). Kind of test: split reporter; split firefly luciferase (the paper: bimolecular fluorescence complementation assay): β-catenin-N-luciferase (0.1 mg as printed) with LEF1-C-luciferase or TCF1-C-luciferase, with or without GATA4; luciferase read 24 hours after transfection; HEK 293 cells in the legend, HepG2 in the text.
For test [7], the target named is GATA4 overexpressed in HEK293 cells (tag not told for the experiment) (human) (UniProt P43694). As to the kind of experiment: co-IP; GATA4 and β-catenin co-overexpressed in HEK293 cells; GATA4 precipitated (Figure S3B).
Test [8] deals with GATA4, endogenous in HepG2 cells (human (endogenous in HepG2)) (UniProt P43694). As to the kind of experiment: co-IP; endogenous proteins from 5×10^7 HepG2 cells; reciprocal, with anti-GATA4 or anti-β-catenin; immunoblot.
Test [9] concerns the target GATA4 ectopically overexpressed in HepG2 cells (human) (UniProt P43694). As to the kind of experiment: co-IP; GATA4 ectopically overexpressed in HepG2 cells; GATA4 precipitated, endogenous β-catenin detected (Figure S3C).

Results are given in words; binding and its absence hold for the method and conditions named. In cells and extracts the contact can be indirect. Some results given as binding are weak or reduced against the parent protein; the word gives no strength.

In the case of “GATA4, endogenous in HepG2 cells (from UniProt P43694 1-442)”, the binding result in test [1] was “binds”.

Regarding “β-catenin, bacterially expressed (GST pull-down) (from UniProt P35222 1-781)”, in test [2], the binding entry is given as “binds”.

For the substance “LEF1 overexpressed in HEK293 cells (from UniProt Q9UJU2 1-399)”, in test [3], the binding entry is “binds”.

Consider “TCF1, endogenous in HepG2i cells (from UniProt P36402 1-384)”, for which the binding entry in test [4] is on record as “binds”.

As to “FLAG tagged β-catenin (from UniProt P35222 1-781)”, in test [5], the binding result was “binds”.

Turning to “LEF1-C-luciferase (from UniProt Q9UJU2 1-399)”, in test [6], the binding entry is on record as “binds”.

“LEF1, endogenous in HepG2i cells (from UniProt Q9UJU2 1-399)”: the binding entry in [4] is recorded as “binds”.

In the case of “TCF1 overexpressed in HEK293 cells (from UniProt P36402 1-384)”, the binding entry in test [3] is on record as “binds”.

Regarding “β-catenin overexpressed in HEK293 cells (tag not told for the experiment) (from UniProt P35222 1-781)”, in test [7], the binding entry is on record as “binds”.

On to “β-catenin, endogenous in HepG2 / HepG2i cells (from UniProt P35222 1-781)”, for which the binding result in test [8] and in test [9] was “binds” throughout.
